Measured values: PMC7903798
These are yes or no findings as the source states them, for the method shown. Binding seen in cells or lysates may run through a third protein. Some binding calls cover weakened binding; strength is not graded here.

Protein sequences, listed by entry. Tags and fused reporters are not part of them.
UniProt Q96LD4: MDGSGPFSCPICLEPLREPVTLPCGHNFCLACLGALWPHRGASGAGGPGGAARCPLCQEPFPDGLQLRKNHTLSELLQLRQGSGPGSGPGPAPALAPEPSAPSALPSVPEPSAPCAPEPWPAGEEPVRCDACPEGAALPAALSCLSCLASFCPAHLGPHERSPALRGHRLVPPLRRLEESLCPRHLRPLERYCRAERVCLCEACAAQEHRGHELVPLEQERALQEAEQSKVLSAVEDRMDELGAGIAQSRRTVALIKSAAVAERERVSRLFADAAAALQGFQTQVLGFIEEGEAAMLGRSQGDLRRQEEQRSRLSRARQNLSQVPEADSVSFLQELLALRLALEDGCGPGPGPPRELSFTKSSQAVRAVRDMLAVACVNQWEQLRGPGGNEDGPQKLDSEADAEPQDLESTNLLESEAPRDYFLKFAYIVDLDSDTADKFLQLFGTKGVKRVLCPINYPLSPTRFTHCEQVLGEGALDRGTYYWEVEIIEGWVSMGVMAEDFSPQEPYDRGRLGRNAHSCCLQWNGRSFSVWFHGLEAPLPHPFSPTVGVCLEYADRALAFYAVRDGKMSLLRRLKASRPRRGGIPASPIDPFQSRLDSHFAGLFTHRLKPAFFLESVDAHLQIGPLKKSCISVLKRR

Target: P53 protein, His-tagged (human) (UniProt P04637)
Experiment: co-IP; His antibody crosslinked to protein A/G agarose; extract of 769-P cells stably overexpressing His-P53 + Flag-TRIM47 (or His-P53 alone); IgG as control; Western blot detection

Substance: Tripartite motif 47 (TRIM47), Flag-tagged (from UniProt Q96LD4 1-638)
- binding: binds
